Reference: PubChem BioAssay AID434987 (Southern Research Specialized Biocontainment Screening …, 2010)
This is one part of the list. Entries with a potency or affinity are not part of this list. The source made no clear call on entries shown without one.

assay: dose response, H37Rv, with and without meropenem (AID 434987); conditions: M. tuberculosis H37Rv growth inhibition with meropenem; at 100 µM (top of the series) unless noted

| Compound | growth inhibition |
| --- | --- |
| N#Cc1cc(Oc2cccc3cccnc23)c(-n2nnc3ccccc32)cc1C#N | 68.3% |
| Cc1ccc(C(=O)c2sc3c(c2N)c(=O)[nH]c(=O)n3CCc2ccccc2)cc1 | 42.5% |
| c1cn(CCCNC2CCCCCCC2)cn1 | 7.66% |
| Cc1ccc(S(=O)(=O)n2cc(-c3ccccc3)c(N)n2)cc1 | 50.8% [at 12.5 µM] |
| Cc1cc(C)c(O)c(-c2cc(C(=O)NCc3ccccc3)[nH]n2)c1 | 37.4% |
| CCc1cccc2c(C(=O)COC(=O)/C=C/c3ccc(O)c(OC)c3)c[nH]c12 | 75.7% |
| Cc1cc(SCC(=O)c2ccccc2)n2ncc(-c3ccccc3)c2n1 | 7.48% |
| CCN1C(=O)C(O)(CC(=O)c2ccc(-n3cccc3)cc2)c2ccccc21 (stereo unspecified) | -14% |
| CCN(CC)c1ccc(S(=O)(=O)N2CCOCC2)cc1NC(=O)CSc1cccc[n+]1[O-] | 63.6% |
| Cc1cc(NC(=O)CCS(=O)(=O)c2nc(-c3ccccc3)cc(C(F)(F)F)n2)no1 | 1.54% |
| Cc1cc(Cl)ccc1OC(C)C(=O)NCCCCc1ccccc1 (stereo unspecified) | 52.5% |
